The test can be described thus: T. cruzi infection blockers in NIH3T3 cells – beta-gal luminescence, NIH3T3 host cells, confirmation (AID 2630). Conditions: T. cruzi beta-gal in NIH3T3, GalScreen luminescence, 90 h; at 19.5 µM (top of the series).

Structures are written as SMILES. The list shows a part of the results. The source made no clear call on entries shown without one.

Regarding `COCc1cc(CN2CCCC(CNC(=O)c3ccc(F)cc3)C2)ccc1OC` (stereo unspecified), the activity change, negative = inhibition was -48.1%.
